Here are results for 77 molecules from article PMC12040169 (PLOS Biology, 2025).

This is one part of the list.

The test system of this experiment is T1, CTL2-GFP (C. trachomatis L2/434/Bu, GFP-expressing).
T1 construct: L2/434/Bu, GFP-expressing
Details: species or system HeLa; Intracellular C. trachomatis growth in HeLa cells, bulk GFP fluorescence relative to DMSO. As to conditions: bulk GFP, single well; 28.5 h, 10 µM; inhibitor.
As to `O=C(NC1CCc2ccccc21)N1CCN(Cc2ccccc2)CC1` (centres unmarked) [CBK155662], the “% of control remaining” value amounted to 119.366%. Turning to `Cc1nc(C(Cc2ccsc2)NC(=O)Cn2ccnc2)sc1C` (centres unmarked) [CBK284777], the “% of control remaining” value was determined as 110.011%. With `O=C1CC2(CCN(S(=O)(=O)Cc3ccc(Cl)cc3)CC2)CN1` [CBK283355], the “% of control remaining” value worked out at 95.1785%.

With `CC(CNC(=O)C(C)(C)C)NC(=O)C(C)(C)C` (centres unmarked) [CBK265443], the “% of control remaining” value amounted to 132.052%. As to `CSc1ccc(CN(CCO)CCO)cc1` [CBK261931], the “% of control remaining” value amounted to 114.995%. Consider `O=C(Cc1c[nH]c2ccccc12)N1CCCC1c1ccc(F)cc1` (centres unmarked) [CBK297927], for which the “% of control remaining” value is 93.3884%. In the case of `CC(C)C(=O)Nc1sc2c(c1C(=O)NCc1cccnc1)CCC2` [CBK306144] it was 124.863%; in that of `NC(=O)Cn1c(=O)n(CCc2ccccc2)c(=O)c2c3c(sc21)CCCC3` [CBK267665], 97.3181%; in that of `CCC(=O)NCc1ccc(-c2cc(CN(C)C)n(C)n2)cc1` [CBK281668], 116.385%. As to `CN(C)S(=O)(=O)Nc1ccccc1C(N)=O` [CBK264382], the “% of control remaining” value was determined as 107.304%.

With `Cc1ccc(S(=O)(=O)Nc2sc3c(c2C(=O)N2CCN(C)CC2)CCCC3)cc1[N+](=O)[O-]` [CBK028650], the “% of control remaining” value was 113.672%. `O=S(=O)(Nc1cccc(-c2nnn[nH]2)c1)c1ccc(Br)s1` [CBK160377]: the “% of control remaining” value is given as 115.946%. For the molecule `O=C(Oc1ccccc1)c1cc(Cl)cnc1Cl` [CBK090320], the “% of control remaining” value is on record as 92.9464%.

In the case of `CN(C)S(=O)(=O)N(CC(=O)Nc1ccccc1C(F)(F)F)c1ccccc1` [CBK268665], the “% of control remaining” value came out at 118.102%. As to `Oc1ccc(-n2cc(-c3ccccc3C(F)(F)F)nn2)cc1` [CBK112971], the “% of control remaining” value was determined as 101.221%. In the case of `Cc1n[nH]c(NC(=O)/C=C/C(=O)O)c1-c1ccc(F)cc1` [CBK287068], the “% of control remaining” value was 95.5529%. For the molecule `C=Cn1cc(CN2CCCC(c3cc4cccnc4[nH]3)C2)c(C)n1` (centres unmarked) [CBK284944], the “% of control remaining” value is 75.7041%. In the case of `COc1ccc([C@H]2CN(C(=O)c3ccccc3)[C@@H]3CCN(Cc4cccs4)C[C@H]23)cc1` [CBK285582] it was 81.6503%; in that of `COc1ccc2[nH]c3c(c2c1)CCNC31CCN(CCCN2C(=O)C3CCCCC3C2=O)C1` (centres unmarked) [CBK059518], 261.082%; in that of `O=C(Cc1ccc(-c2ccccc2)cc1)N1CCC2(CC1)Nc1ccccc1S(=O)(=O)N2` [CBK286189], 128.936%.

Regarding `COCC(C)NC(=O)c1cnn2c(C(F)(F)F)cc(-c3cccs3)nc12` (centres unmarked) [CBK307417], the “% of control remaining” value is given as 143.237%.

For `O=C1OC(c2ccccc2)=C/C1=C1/C(=O)Nc2ccccc21` [CBK115375], the “% of control remaining” value came out at 119.514%.

Take `COCC(=O)Nc1cc(OC)c(Cl)cc1OC` [CBK264448]: the “% of control remaining” value was 134.2%. Regarding `Cc1ccc(Oc2ccc(CNC(=O)c3sc4nc[nH]c(=O)c4c3C)cc2)cc1` [CBK285857], the “% of control remaining” value worked out at 114.414%. Consider `O=C(NCC1CCOCC1)c1cc(-c2cccnc2)cnc1NCc1ccc2c(c1)OCO2` [CBK154825], for which the “% of control remaining” value is 134.849%. With `O=c1[nH]c(-c2ccccc2)nc2c1CN(Cc1cccs1)CC2` [CBK282330], the “% of control remaining” value is on record as 129.802%. Turning to `Cc1noc(C)c1C(=O)N1CCC[C@@H](C(=O)c2ccccc2F)C1` [CBK282249], the “% of control remaining” value came to 113.615%. As to `O=C(Nc1nonc1-c1nc2ccccc2n1CCOC(=O)c1ccc(F)cc1)c1ccc(F)cc1` [CBK062653], the “% of control remaining” value is reported as 120.003%. Take `Cn1cc(-c2ncc(OCCOc3ccccc3)nc2N)cn1` [CBK145171]: the “% of control remaining” value worked out at 99.9668%. As to `COc1ccccc1N1CCN(CCC(=O)Nc2ccc(Br)c(C)c2)CC1` [CBK264218], the “% of control remaining” value is on record as 109.71%.

`CCN(CC)CCOc1cc(=O)oc2ccccc12` [CBK022747C]: the “% of control remaining” value is on record as 130.022%. As for `COc1ccccc1C(=O)Cn1c(=O)n(S(=O)(=O)c2ccccc2)c2ccccc21` [CBK106497], the “% of control remaining” value worked out at 162.312%. `CC(C)NC(=O)Cn1nnc(-c2cccc(C(F)(F)F)c2)n1` [CBK304275]: the “% of control remaining” value was 74.3939%. Turning to `O=C(CC(C(=O)O)n1cncn1)c1ccc(Br)cc1` (centres unmarked) [CBK269305], the “% of control remaining” value is recorded as 111.628%. Consider `N#Cc1cccc(C(=O)N2CCN(c3ncccn3)CC2)c1` [CBK144498], for which the “% of control remaining” value amounted to 111.639%.

With `O=C(c1cc2cc(F)ccc2[nH]1)N1CCN(c2ncccn2)CC1` [CBK107280], the “% of control remaining” value turned out to be 77.4352%. As to `CN(C)S(=O)(=O)N1CCN(c2ccc([N+](=O)[O-])c(NC3CC3)c2)CC1` [CBK265158], the “% of control remaining” value is on record as 130.079%.

Consider `CC(=O)c1ccc(CN2CCN(S(=O)(=O)c3ccc(C(F)(F)F)cc3Cl)CC2)cc1` [CBK063072], for which the “% of control remaining” value came out at 89.7461%. `COc1cc(C(C)=O)ccc1OCCCCN1CCOCC1` [CBK269713C]: the “% of control remaining” value came to 110.526%. Turning to `Cc1ccc(NC(=O)c2cc([N+](=O)[O-])ccc2NCCN2C(=O)c3ccccc3C2=O)cc1` [CBK267159], the “% of control remaining” value was 126.231%.

As for `COc1cc2c(cc1NC(=O)CSc1nc3ccccc3o1)oc1ccccc12` [CBK265154], the “% of control remaining” value is recorded as 100%.

Regarding `Cc1ccc2[nH]cc(CCN3CCC4(C3)OCCc3c4[nH]c4ccccc34)c2c1` (centres unmarked) [CBK061790], the “% of control remaining” value is recorded as 70.2465%. In the case of `COc1ccccc1CC(=O)N1CC[C@@H]2NC(=O)[C@H]3C[C@H](NC(=O)C4CC4)CN3C(=O)[C@H]21` [CBK289267] it was 121.144%; in that of `Cc1cc(C)c2cc(C(=O)N(C)CC3(C)COC3)[nH]c2c1` [CBK281711], 131.84%. For the molecule `Cc1ccc(-c2nnc(CNC(=O)c3ccc(F)c(F)c3)o2)s1` [CBK284647], the “% of control remaining” value is given as 140.217%. In the case of `Cc1cc(C)nc(Nc2ncc(O)n2-c2ccccc2)n1` [CBK287914] it was 120.403%; in that of `O=[N+]([O-])c1cccc(S(=O)(=O)Nc2ccc(C(O)(C(F)(F)F)C(F)(F)F)cc2)c1` [CBK062093], 67.1488%; in that of `CC(C)c1nsc(NS(=O)(=O)c2cccc(C(F)(F)F)c2)n1` [CBK038881], 92.4722%.

Take `Cc1cnc2[nH]c(C3CCN(C(=O)c4scnc4C)CC3)cc2c1` [CBK284753]: the “% of control remaining” value was determined as 154.146%. In the case of `CN(C)CCN(C)c1cncc(-c2cccc(/C=C/C(=O)O)c2)n1` [CBK065451], the “% of control remaining” value stood at 119.15%.

For the molecule `Cc1ccc2c(CSc3nc(N)cc(N)n3)cc(=O)oc2c1C` [CBK297519], the “% of control remaining” value is on record as 164.755%. Turning to `O=C(CO)N1CC2(CCN(CCc3cccc4ccccc34)CC2)c2ccccc21` [CBK137003], the “% of control remaining” value is on record as 106.992%. The result for `CNS(=O)(=O)c1c(C)nn(-c2ccccc2)c1C` [CBK086715] reads 87.3215%. As for `CC(C)(C)c1ccc(-c2cc(C3CCNCC3)n[nH]2)cc1` [CBK270240], the “% of control remaining” value was 95.358%. On to `FC(F)(F)C1(NC2(C(Cl)(Cl)Cl)Oc3ccccc3O2)Oc2ccccc2O1` [CBK265544], for which the “% of control remaining” value came out at 114.315%. In the case of `CS(=O)(=O)Nc1ccc2c(ccn2Cc2ccccc2)c1` [CBK159527] it was 89.2993%; in that of `O=C(C(Cc1ccccc1)c1ccccc1)N1CCC2(CCN(CCCCOc3ccccc3)C2)C1` (centres unmarked) [CBK160643], 119.489%. As to `Cc1ccnn1CCC(=O)N1CCCC1c1nc2ccccc2[nH]1` (centres unmarked) [CBK285178], the “% of control remaining” value is 78.1332%.

As for `CC(C)c1ccccc1OCC(=O)OCCN1C(=O)c2ccccc2C1=O` [CBK264841], the “% of control remaining” value amounted to 140.326%.

Regarding `N#C/C(=C\c1ccc(N2CCN(c3ccc(F)cc3)CC2)c([N+](=O)[O-])c1)c1nn(-c2ccccc2)c(N)c1C#N` [CBK267927], the “% of control remaining” value is recorded as 142.469%. As to `CCN(C(C)=O)c1nc(CN2CCOC(c3ccc(F)cc3)C2)cs1` (centres unmarked) [CBK306213], the “% of control remaining” value amounted to 120.209%. For `CCN(CC)CCNC(=O)/C(=N\O)c1ccccc1` [CBK288408], the “% of control remaining” value is listed as 109.954%. `CCOC(=O)c1[nH]c2ccccc2c1NC(C)=O` [CBK086755]: the “% of control remaining” value came out at 114.594%. The result for `CCN(CC)C(=O)CN1CCCN(c2cc(Oc3ccc(OC)c(OC)c3)ncn2)CC1` [CBK083359T] reads 105.347%; that for `C=CCN1C(=O)CC2(C1=O)C(=O)N(Cc1nnc(-c3ccc(C)cc3)o1)c1ccc(Cl)cc12` (centres unmarked) [CBK075434], 171.105%; that for `O=C(Nc1ccc([C@@H](O)[C@H]2COCC(=O)N2Cc2cccnc2)cc1)c1ccccc1` [CBK289319], 171.14%. In the case of `O=C(O)c1ccccc1-c1nc(-c2ccccc2F)no1` [CBK268022] it was 108.597%; in that of `Cc1ccnc(NS(=O)(=O)c2ccc(NS(=O)(=O)c3ccc(F)cc3)cc2)n1` [CBK051024], 122.599%. Regarding `CC(C)N1CCC(CNC(=O)Cn2ccc3ccc(F)cc32)CC1` [CBK282571], the “% of control remaining” value is 124.415%.

In the case of `CCc1nc2c(OCCOc3ccccc3)cccn2c1N(C=O)CC(=O)N(C)C` [CBK147510], the “% of control remaining” value is 106.657%. Turning to `c1coc(CNc2ncc(-c3ccc(N4CCOCC4)cc3)n3ccnc23)c1` [CBK091220], the “% of control remaining” value is 68.1687%. Consider `Cc1cc(O)c(C(C)C)cc1N1C(=O)c2ccc([N+](=O)[O-])cc2C1=O` [CBK115323], for which the “% of control remaining” value came to 124.456%. Turning to `c1cnc(-c2nnn[nH]2)c(-c2ccc(COc3ccc4c(c3)OCO4)cc2)n1` [CBK050812], the “% of control remaining” value is given as 100%. Regarding `OC(COc1ccccc1F)CSc1nc(NC2CC2)c2ccccc2n1` (centres unmarked) [CBK297902], the “% of control remaining” value is recorded as 141.258%. In the case of `Cn1c(=O)c2c(nc(NCc3ccc4c(c3)OCO4)n2Cc2cccc(Cl)c2)n(C)c1=O` [CBK074359], the “% of control remaining” value was determined as 83.5783%. As to `Cc1ccc(C2(CN3CCN(Cc4cnn(C)c4)CC3)CC2)cc1` [CBK282480], the “% of control remaining” value is listed as 137.067%. As to `CN(C)CCCNc1ccc(-c2n[nH]c(=O)c3ccccc23)cc1[N+](=O)[O-]` [CBK266200], the “% of control remaining” value is listed as 159.888%.
